The source of these data is paper PMC9561264.

Protein sequences, listed by entry. Tags and fused reporters are not part of them. Residues count along the entry.
UniProt P01106, 16-454: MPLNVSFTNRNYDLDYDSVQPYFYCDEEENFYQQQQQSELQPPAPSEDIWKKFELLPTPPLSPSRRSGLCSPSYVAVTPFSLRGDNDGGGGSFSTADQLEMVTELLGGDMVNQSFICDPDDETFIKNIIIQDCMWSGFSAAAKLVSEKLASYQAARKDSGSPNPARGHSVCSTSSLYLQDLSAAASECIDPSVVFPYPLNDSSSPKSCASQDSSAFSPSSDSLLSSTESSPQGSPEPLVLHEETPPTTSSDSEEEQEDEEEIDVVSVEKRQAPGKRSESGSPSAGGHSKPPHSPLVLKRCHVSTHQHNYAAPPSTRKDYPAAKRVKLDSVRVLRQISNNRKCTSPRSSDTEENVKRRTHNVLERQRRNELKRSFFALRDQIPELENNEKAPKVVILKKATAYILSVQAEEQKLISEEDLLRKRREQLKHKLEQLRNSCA
UniProt O15527, whole entry: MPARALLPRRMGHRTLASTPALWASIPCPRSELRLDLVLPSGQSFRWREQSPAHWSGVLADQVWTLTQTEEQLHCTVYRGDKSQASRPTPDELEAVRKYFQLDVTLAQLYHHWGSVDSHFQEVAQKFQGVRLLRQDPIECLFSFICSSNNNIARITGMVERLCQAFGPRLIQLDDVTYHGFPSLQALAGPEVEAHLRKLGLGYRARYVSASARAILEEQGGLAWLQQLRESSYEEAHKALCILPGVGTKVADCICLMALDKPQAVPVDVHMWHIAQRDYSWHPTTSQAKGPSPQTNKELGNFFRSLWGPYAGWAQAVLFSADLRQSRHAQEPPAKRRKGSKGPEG
UniProt O15527, whole entry C241A: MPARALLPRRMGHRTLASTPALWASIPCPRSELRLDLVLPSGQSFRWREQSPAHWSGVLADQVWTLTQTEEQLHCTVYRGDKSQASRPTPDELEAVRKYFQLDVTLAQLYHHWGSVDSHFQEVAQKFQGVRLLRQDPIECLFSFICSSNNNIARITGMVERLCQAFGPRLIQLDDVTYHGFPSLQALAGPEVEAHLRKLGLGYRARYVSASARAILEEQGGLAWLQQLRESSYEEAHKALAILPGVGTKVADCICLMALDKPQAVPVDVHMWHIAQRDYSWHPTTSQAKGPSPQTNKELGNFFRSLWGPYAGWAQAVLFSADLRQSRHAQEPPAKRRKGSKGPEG

Series [1] concerns the target c-Myc (UniProt P01106). Put plainly: binding control, method not stated. To be noted: activity assay conditions; 8-oxoguanine at position 26 of strand 1 (written G); commercial protein; protein details: GST, quantum dot in E-box AFM; label: 5' fluorophore on top strand.
Series [2] deals with hOGG1 wild type (human) (UniProt O15527). Put plainly: EMSA. To be noted: dimers only, redox independent; EMSA room temp 30 min, 15% native PAGE 0.5x TBE 4°C; interaction buffer 20 mM Tris-HCl pH 7.6, 200 mM NaCl (Fig. S12); recombinant protein; label: 5' AF647 (FP) or Cy3 (EMSA) on bottom strand; letters put together from the description. Background: Mobility shift assays separate free from complexed probe on a gel.

The target of series [3] is hOGG1 C241A (human) (UniProt O15527). Description: fluorescence polarisation. To be noted: KD in Fig. S1 table, not in material; 8-oxoguanine at position 10 of strand 1 (written G); FP at 25°C with 5 nM labelled DNA; interaction buffer 20 mM Tris-HCl pH 7.6, 200 mM NaCl (Fig. S12); recombinant protein; protein details: N-terminal His6 (removed where required); label: 5' AF647 (FP) or Cy3 (EMSA) on bottom strand. For orientation: Polarisation of emitted light reports the rotation of a fluorescent probe.

For at least one entry, the source does not settle the construct or the ends of the probe. For part of these data: A negative result means that nothing was seen under these conditions. For part of these data: At least one verdict was read from the data and is not stated in words by the source. For part of these data: The comparison behind a weaker result is the experiment's own reference, which may not be listed here.

Take “GCATGCCTCGAGTCTAGAGGTACCAGATCTGATCCTCTAGAGTCGACC (double strand) [oxoG activity substrate 48 bp]”: in series [1], the binding result is given as “no binding”.
As to “GCATGCCTCGAGTCTAGAGGTACCAGATCTGATCCTCTAGAGTCGACC (double strand) [undamaged (nsp) 48 bp]”, in series [2], the binding result is “binds more weakly”.
In the case of “GCATGCCTCGAGTCTAGAGGTACCAGATCTGATCCTCTAGAGTCGACC (double strand) [oxoG 48 bp (EMSA/FP)]”, the binding result in series [3] is on record as “binds more weakly”.
